From paper PMC10470772 come the findings set out here.

Results are given in words; binding and its absence hold for the method and conditions named. Binding seen in cells or lysates may run through a third protein. Binding can be weak; no strength is given.

For the experiment, the target named is Mus musculus papillomavirus 1 (MmuPV1) E8^E2-HA, wild type (Mus musculus papillomavirus 1 (MmuPV1)). Nature of the experiment: co-IP; HeLa cells transfected with HA-tagged E8^E2 expression vectors; endogenous HDAC3 and TBL1; lysed in IP-buffer (50 mM HEPES pH 7.9, 150 mM NaCl, 0.3% Igepal 630, 1 mM DTT); precipitated with magnetic anti-HA beads; immunoblot with anti-HDAC3, anti-TBL1 and anti-HA.

B1: endogenous TBL1 (transducin beta-like protein 1) (protein, UniProt O60907 1-577)
chain: MTELAGASSSCCHRPAGRGAMQSVLHHFQRLRGREGGSHFINTSSPRGEAKMSITSDEVNFLVYRYLQESGFSHSAFTFGIESHISQSNINGTLVPPAALISILQKGLQYVEAEISINEDGTVFDGRPIESLSLIDAVMPDVVQTRQQAFREKLAQQQASAAAAAAAATAAATAATTTSAGVSHQNPSKNREATVNGEENRAHSVNNHAKPMEIDGEVEIPSSKATVLRGHESEVFICAWNPVSDLLASGSGDSTARIWNLNENSNGGSTQLVLRHCIREGGHDVPSNKDVTSLDWNTNGTLLATGSYDGFARIWTEDGNLASTLGQHKGPIFALKWNRKGNYILSAGVDKTTIIWDAHTGEAKQQFPFHSAPALDVDWQNNTTFASCSTDMCIHVCRLGCDRPVKTFQGHTNEVNAIKWDPSGMLLASCSDDMTLKIWSMKQEVCIHDLQAHNKEIYTIKWSPTGPATSNPNSNIMLASASFDSTVRLWDIERGVCTHTLTKHQEPVYSVAFSPDGKYLASGSFDKCVHIWNTQSGNLVHSYRGTGGIFEVCWNARGDKVGASASDGSVCVLDLRK
B1: the binding entry was “binds”.
